For 60 compounds, normalized cell count results are on record in PubChem BioAssay AID1273 (Columbia University Molecular Screening Center, 2008).

This is one part of the list. Shown are side measurements of this screen, not its main read-out; they come without a call. Compounds called inactive in the main read-out are mostly missing here.

This assay can be described thus: inhibitors of insulin promoter-driven GFP, primary screen, imaging, TRM-6 cells (human fetal islet line), eGFP reporter, cell count (AID 1273;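 also: cells exposed to compound for 48 h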). To be noted: measured here: cell count, toxicity, at 2 µM, reporter expression induced with tamoxifen.
As to `COc1ccccc1NS(=O)(=O)c1cc(N)ccc1N1CCCCC1`, the normalized cell count was determined as 98.5%.

As to `O=C(Nc1cccc(Cl)c1)Nc1nccs1`, the normalized cell count worked out at 97.8%.

In turn, `COc1cccc(N2CCN(Cc3nc4ccccc4c(=O)[nH]3)CC2)c1` had a normalized cell count of 39.7%.

`Cc1ccc(C)c(SCC(=O)NC(=O)Nc2ccc3c(c2)OCCO3)c1`: the normalized cell count came out at 74.3%.

Regarding `Cc1ccc(NC(=O)c2cnn(-c3ccccc3)c2NC(=O)c2ccco2)cc1C`, the normalized cell count came to 115%.

For `O=C(/C=C/c1ccc(N2CCCCC2)c([N+](=O)[O-])c1)c1ccc(O)cc1`, the normalized cell count is 87.9%.

In turn, `CCCCCCN1C2=NCCN2c2ccccc21` yielded a normalized cell count of 138%.

In turn, `CCNc1nc(N)nc(-c2cc(Cl)ccc2O)n1` showed a normalized cell count of 74.1%.

In turn, `CC(C)N1CC(C(=O)Nc2nc3ccccc3s2)CC1=O` (stereo not given) yielded a normalized cell count of 80.8%.

On to `COc1ccc(OC)c(-n2c(SCC(=O)N3CCc4ccccc43)nc3c(c2=O)SCC3)c1`, for which the normalized cell count was found to be 62.4%.

`O=C(N/C(=C\c1cccs1)C(=O)N1CCOCC1)c1cccs1`: the normalized cell count stood at 87.4%.

`O=C(Oc1cccnc1)c1ccccc1[N+](=O)[O-]` gave a normalized cell count of 102%.

`O=C(Nc1ccccc1)N1CC=C(c2ccccc2)CC1` returned a normalized cell count of 89.3%.

As for `c1cncc(-c2nc3ccccc3[nH]2)c1`, the normalized cell count is 132%.

In turn, `O=C(Cn1nc(-c2ccccc2)ccc1=O)NCC1COCCO1` (stereo not given) yielded a normalized cell count of 16.2%.

With `c1ccc(-c2ccccc2-c2nc(-c3ccncc3)no2)cc1`, the normalized cell count worked out at 38.1%.

With `O=C(O)c1cn(-c2ccccc2)c(=O)c2ccccc12`, the normalized cell count worked out at 168%.

Consider `COC(=O)c1ccccc1NC(=O)N1CCCC1`, for which the normalized cell count was 125%.

`O=C(O)c1cc(-c2cccs2)nc2cc3c(cc12)OCCO3` displayed a normalized cell count of 159%.

The compound `COc1ccc(S(=O)(=O)N2CCCC2C(=O)Nc2ccc(C(C)=O)cc2)cc1` (stereo not given) registered a normalized cell count of 90.2%.

For the compound `COc1ccc(-c2nc(N3CCC(C)CC3)[nH]c(=O)c2C#N)cc1`, the normalized cell count was determined as 33.9%.

On to `COc1ccc(OC)c(CNC(=O)Cc2c(C(=O)O)[nH]c3ccc(Cl)cc23)c1`, for which the normalized cell count came out at 94.2%.

In turn, `O=C(CSC1=NCCS1)Nc1ccc(S(=O)(=O)N2CCCCCC2)cc1` came in with a normalized cell count of 112%.

`COc1ccccc1N1CCN(C(=O)c2n[nH]c3ccccc23)CC1`: the normalized cell count came to 152%.

For the compound `O=C(Nc1ccsc1C(=O)N1CCCC1)c1ccccc1`, the normalized cell count came to 181%.

In the case of `N#CCCn1cc(/C=C(\C#N)c2nc3ccccc3s2)c(-c2ccc(F)cc2)n1`, the normalized cell count stood at 50.6%.

As to `COc1ccc(C2=NOC(C(=O)Nc3cc(Br)ccc3O)C2)cc1OC` (stereo not given), the normalized cell count came to 32.2%.

On to `O=C(COC(=O)Cc1ccsc1)Nc1ccccc1`, for which the normalized cell count worked out at 84.1%.

As for `c1ccc2c(c1)NC(c1ccncc1)n1c-2nc2ccccc21` (stereo not given), the normalized cell count stood at 80.1%.

Compound `Cc1nn2c(Nc3ccc(F)cc3)c3c(nc2c1-c1ccccc1)CCC3` showed a normalized cell count of 159%.

`COc1ccc(OC)c2[nH]c(=O)c(CCNC(=O)C3CCCCC3)cc12` displayed a normalized cell count of 102%.

`CN(C)c1ncnc2c1ncn2C1OC(CO)C(O)C1O` (stereo not given) came in with a normalized cell count of 101%.

Consider `Cc1nn(C)cc1CNC(=O)COc1ccc(Cl)cc1Cl`, for which the normalized cell count turned out to be 147%.

Compound `CCN(CC)S(=O)(=O)c1cccc(NC(=O)c2ccccc2Br)c1` yielded a normalized cell count of 33.3%.

Compound `COc1ccc(/C=N/n2c(N)nc3ccccc32)cc1OC` showed a normalized cell count of 112%.

With `CCOC(=O)c1c(N)nn(C(=O)C(C)C)c1-c1ccc(OC)cc1`, the normalized cell count worked out at 96.5%.

For `COc1ccc2c(C)cc(=O)[nH]c2c1`, the normalized cell count came out at 121%.

Compound `O=C(Nc1ccc(N2CCN(c3ccccc3)CC2)c(F)c1)C1CC1` came in with a normalized cell count of 139%.

As to `CCCN1CN(Cc2ccco2)c2nc3ccccc3n2C1`, the normalized cell count came out at 107%.

Turning to `CCc1nc(N(CC)CC)c2oc3ccccc3c2n1`, the normalized cell count was 146%.

As to `O=C(COC(=O)CCSc1ccc(Cl)cc1)NCc1ccccc1Cl`, the normalized cell count was determined as 92.7%.

As to `CCc1nnc(NC(=O)CSc2nnc(COc3cccc(C)c3)o2)s1`, the normalized cell count came out at 62.4%.

`O=C(Nc1ccccc1Cl)OCc1cncs1` returned a normalized cell count of 84.8%.

In turn, `Cc1nc(N/N=C/c2ccc(O)cc2)c2cnn(-c3ccccc3)c2n1` came in with a normalized cell count of 36.9%.

Regarding `COCCCNC(=O)c1c(NC(=O)C2COc3ccccc3O2)sc2c1CCCC2` (stereo not given), the normalized cell count was found to be 56.1%.

As to `CCOc1ccc(NC(=O)c2ccc3snnc3c2)cc1`, the normalized cell count was found to be 144%.

`Cc1sc2nc(SCC(=O)NCc3cccs3)[nH]c(=O)c2c1C` registered a normalized cell count of 136%.

On to `O=c1[nH]c(-c2ccccn2)cc2ccccc12`, for which the normalized cell count turned out to be 165%.

For the compound `Cc1nc2cc(Cl)ccc2n1CCO`, the normalized cell count was 145%.

As for `CCOc1ccc(NC(=S)c2ccncc2)cc1`, the normalized cell count stood at 139%.

For `O=c1[nH]c2cccnc2n1Cc1ccccc1`, the normalized cell count worked out at 117%.

For the compound `CCOc1ccc(C(=O)OCCN(CC)CC)cc1`, the normalized cell count came out at 25.2%.

Regarding `CC(C)Sc1nnc2n(CCc3ccccc3)c(=O)c3c4c(sc3n12)COC(C)(C)C4`, the normalized cell count is 29.3%.

Take `CC(=O)c1cnc(Nc2cccc(C)c2)s1`: the normalized cell count was found to be 126%.

As for `COc1ccc(/C=C/C(=O)CC(O)(c2ccccc2)C(F)(F)F)cc1` (stereo not given), the normalized cell count came to 96.4%.

`c1ccc2nc3c(cc2c1)CCCCCC3` gave a normalized cell count of 126%.

`O=C(OCC(=O)N1CCCC1)c1cncc(Br)c1` came in with a normalized cell count of 9.19%.

The compound `COc1ccccc1N/N=C/c1ccc2c(c1)OCO2` returned a normalized cell count of 148%.

For `Cn1cc(SCC(=O)O)c2ccccc21`, the normalized cell count stood at 118%.

For the compound `COc1cc(OC)c(NC(=O)c2ccoc2C)cc1Cl`, the normalized cell count worked out at 95.6%.
